These are yes or no findings as the source states them, for the method shown. Binding seen in cells or lysates may run through a third protein. A result given as binding can be weak or reduced; the word gives no strength.
Target: 3x Flag-tagged O-GlcNAc site mutant NRF1 (Flag-AA-NRF1) (human)
Test: co-IP; lysates of ADR cells stably expressing Flag-WT-NRF1 or Flag-AA-NRF1, anti-Flag magnetic beads, immunoblotting for endogenous HCF-1 and OGT

B1: O-GlcNAc transferase (OGT), endogenous (enzyme, UniProt O15294 1-1046)
chain: MASSVGNVADSTEPTKRMLSFQGLAELAHREYQAGDFEAAERHCMQLWRQEPDNTGVLLLLSSIHFQCRRLDRSAHFSTLAIKQNPLLAEAYSNLGNVYKERGQLQEAIEHYRHALRLKPDFIDGYINLAAALVAAGDMEGAVQAYVSALQYNPDLYCVRSDLGNLLKALGRLEEAKACYLKAIETQPNFAVAWSNLGCVFNAQGEIWLAIHHFEKAVTLDPNFLDAYINLGNVLKEARIFDRAVAAYLRALSLSPNHAVVHGNLACVYYEQGLIDLAIDTYRRAIELQPHFPDAYCNLANALKEKGSVAEAEDCYNTALRLCPTHADSLNNLANIKREQGNIEEAVRLYRKALEVFPEFAAAHSNLASVLQQQGKLQEALMHYKEAIRISPTFADAYSNMGNTLKEMQDVQGALQCYTRAIQINPAFADAHSNLASIHKDSGNIPEAIASYRTALKLKPDFPDAYCNLAHCLQIVCDWTDYDERMKKLVSIVADQLEKNRLPSVHPHHSMLYPLSHGFRKAIAERHGNLCLDKINVLHKPPYEHPKDLKLSDGRLRVGYVSSDFGNHPTSHLMQSIPGMHNPDKFEVFCYALSPDDGTNFRVKVMAEANHFIDLSQIPCNGKAADRIHQDGIHILVNMNGYTKGARNELFALRPAPIQAMWLGYPGTSGALFMDYIITDQETSPAEVAEQYSEKLAYMPHTFFIGDHANMFPHLKKKAVIDFKSNGHIYDNRIVLNGIDLKAFLDSLPDVKIVKMKCPDGGDNADSSNTALNMPVIPMNTIAEAVIEMINRGQIQITINGFSISNGLATTQINNKAATGEEVPRTIIVTTRSQYGLPEDAIVYCNFNQLYKIDPSTLQMWANILKRVPNSVLWLLRFPAVGEPNIQQYAQNMGLPQNRIIFSPVAPKEEHVRRGQLADVCLDTPLCNGHTTGMDVLWAGTPMVTMPGETLASRVAASQLTCLGCLELIAKNRQEYEDIAVKLGTDLEYLKKVRGKVWKQRISSPLFNTKQYTMELERLYLQMWEHYAAGNKPDHMIKPVEVTESA
In the case of B1, the binding is reported as “binds”.

— PMC7678849
